PubChem BioAssay AID1259266 | Sanger Institute | 2017
Purpose: 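Essential genes and drug synergy among kinases and colorectal-mutated genes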 (primary screen). Cells: LS123 human colorectal cancer cells. Reagents: siRNA pool against human genes. Conditions: anchor drugs BYL719 (1 µM), cetuximab (5 µg/ml) or trametinib (10 nM), each chosen to barely slow growth alone; DMSO vehicle as the drug-free arm. Read-out: 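Replicate-averaged viability scaled to non-targeting pools, robust z-score for siRNA alone, and a synergy score per anchor drug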. Reading the numbers: robust z-score, knock-down alone: higher = more cells surviving after knock-down. Rule for the call: 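Essential when the robust z-score of the knock-down alone is below -3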. Meaning of the calls: active = essential (knock-down alone cuts viability); inactive = no change.
The deposit covers 794 reagents; shown is an unselected part. Over the whole deposit, 16 (2%) are marked active. 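Calls reflect knock-down alone, not drug synergy; viability seems capped at 1 and z-scores at 0.585.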 A number with no mark means an inactive call. Further read-outs or replicates are left out here. The record does not give: the amount of reagent, the time to read-out.

target	robust z-score, knock-down alone
SCYL3	-1.41
NEK4	-0.905
MAP4K5	-1.6
AKT2	0.15
CDKN1B	0.585
ALPK3	0.585
SYK	-1.73
CKS2	0.585
MLKL	0.585
PSKH2	-0.189
EPHA6	-3.13 (active)
RAD21	-1.43
JAK2	-0.0168
CDC42BPB	0.585
NEK1	0.585
FES	-1.78
MAPK11	0.564
MAST1	0.585
ACVR1	0.585
TAOK3	0.585
IRAK3	-2.12
DGKK	0.585
DGKH	0.471
MED12	-0.882
TAOK1	0.585
CAMKK2	0.585
PRKAR2B	-1.4
TRIB3	0.585

A portion taken from the entries so far, as a working copy:
target	robust z-score, knock-down alone
ALPK3	0.585
SYK	-1.73
CKS2	0.585
MLKL	0.585
PSKH2	-0.189
EPHA6	-3.13 (active)
RAD21	-1.43

More results follow:
target	robust z-score, knock-down alone
CASK	-1.02
SRPK2	0.585
IRAK1	0.126
BRWD1	0.585
PAPSS2	0.585
ADGRL2	0.585
TRIO	0.585
RPS6KA2	-1.64
PTK2B	0.585
UHMK1	-0.0255
MAPKAPK3	-2.39
RPS6KA1	0.585
PTK6	0.0559
LYN	0.585
AURKA	-4.69 (active)
GRK2	0.579
MAP3K10	0.585
ACVR2A	0.585
FN1	0.585
ATM	0.457
STK38	-0.768
PRKAG1	0.585
